From patent US8163870B2, “Channel forming peptides” (Kansas State University Research Foundation, priority 2000, dated 2012) come the findings set out here.

This data set is described as follows: Tryptophan fluorescence and KI quenching in buffer and liposomes. Type of data set: physicochemical.

A unit is not stated for every read-out.

On to “KKKKAARVGL GITTVWVTTI GLGVRAA (KKKKAARVGLGITTVWVTTIGLGVRAA; Modified Homo sapiens) [SEQ ID No. 9]”, for which the tryptophan fluorescence intensity entry is recorded as “approximately 249.0” (1 mM liposomes); 148.0 arbitrary units (buffer); 26.7 arbitrary units (buffer, 50 mM KI); 193.0 (liposomes, KI). Also, the “tryptophan fluorescence lambda max” value runs as follows: (1 mM liposomes) 327.8 nm; (buffer, 50 mM KI) 357.0 nm; (buffer, peptide 6.25 micromolar) 348.4 nm; (liposomes, KI) 327.4 nm.
